The text below walks through data of paper PMC4741751.

Protein sequences, listed by entry. Tags and fused reporters are not part of them.
UniProt P42336: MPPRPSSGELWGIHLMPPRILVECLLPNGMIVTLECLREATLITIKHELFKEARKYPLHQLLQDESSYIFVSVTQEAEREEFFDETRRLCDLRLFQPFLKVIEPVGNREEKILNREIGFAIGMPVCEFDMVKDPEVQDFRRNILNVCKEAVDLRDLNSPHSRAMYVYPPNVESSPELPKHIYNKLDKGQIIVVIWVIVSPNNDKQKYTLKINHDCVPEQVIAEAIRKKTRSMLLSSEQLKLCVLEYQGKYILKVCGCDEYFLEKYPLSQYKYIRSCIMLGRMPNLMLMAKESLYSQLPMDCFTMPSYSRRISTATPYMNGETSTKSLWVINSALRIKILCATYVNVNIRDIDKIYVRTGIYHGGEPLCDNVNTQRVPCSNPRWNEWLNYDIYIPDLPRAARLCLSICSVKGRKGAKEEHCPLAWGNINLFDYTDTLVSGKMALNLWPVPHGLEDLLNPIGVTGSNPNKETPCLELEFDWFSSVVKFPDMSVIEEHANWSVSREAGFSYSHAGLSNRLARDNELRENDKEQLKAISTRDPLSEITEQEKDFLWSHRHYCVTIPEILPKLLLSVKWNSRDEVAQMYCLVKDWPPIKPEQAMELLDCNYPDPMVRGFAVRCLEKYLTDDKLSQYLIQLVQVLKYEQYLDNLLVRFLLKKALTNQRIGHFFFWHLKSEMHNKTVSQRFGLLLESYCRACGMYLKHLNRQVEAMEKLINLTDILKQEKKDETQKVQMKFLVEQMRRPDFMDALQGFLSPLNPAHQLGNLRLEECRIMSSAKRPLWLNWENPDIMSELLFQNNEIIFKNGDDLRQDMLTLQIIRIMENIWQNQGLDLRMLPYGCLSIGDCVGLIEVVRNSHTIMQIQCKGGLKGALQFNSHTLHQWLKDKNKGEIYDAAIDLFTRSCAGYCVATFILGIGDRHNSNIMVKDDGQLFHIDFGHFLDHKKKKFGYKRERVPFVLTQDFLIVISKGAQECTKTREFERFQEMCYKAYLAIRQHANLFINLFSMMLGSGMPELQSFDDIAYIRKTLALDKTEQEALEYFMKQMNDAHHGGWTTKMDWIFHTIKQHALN
UniProt Q9UQ13: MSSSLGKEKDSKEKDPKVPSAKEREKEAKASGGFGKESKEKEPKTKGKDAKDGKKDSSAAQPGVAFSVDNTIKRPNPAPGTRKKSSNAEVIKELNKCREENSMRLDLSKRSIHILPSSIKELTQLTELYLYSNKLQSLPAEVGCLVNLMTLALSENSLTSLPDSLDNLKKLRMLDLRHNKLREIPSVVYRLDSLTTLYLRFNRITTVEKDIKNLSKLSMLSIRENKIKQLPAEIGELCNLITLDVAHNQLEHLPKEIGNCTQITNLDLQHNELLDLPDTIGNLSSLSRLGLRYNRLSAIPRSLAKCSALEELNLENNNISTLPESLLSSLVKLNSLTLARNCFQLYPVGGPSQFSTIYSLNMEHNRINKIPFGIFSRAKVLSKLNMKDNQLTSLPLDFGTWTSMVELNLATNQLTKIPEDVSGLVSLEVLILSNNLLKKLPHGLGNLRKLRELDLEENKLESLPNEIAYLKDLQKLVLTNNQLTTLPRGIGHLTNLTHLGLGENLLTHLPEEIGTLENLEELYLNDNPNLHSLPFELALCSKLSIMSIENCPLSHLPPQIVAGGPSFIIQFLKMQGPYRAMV

The assay concerns the target p110α subunit of PI3K in lysates of HEK293 cells transfected with the indicated plasmids (Figure 5C-E) (UniProt P42336). Put plainly: co-IP; HEK293 cells transfected with the indicated plasmids, treated or not with EGF (10 minutes), or with wild type or oncogenic H-Ras; whole cell lysates immunoprecipitated with anti-p110α antibody and protein A/G agarose, 12 hours at 4°C; immunoblot. (A western blot detects proteins with antibodies after separation by electrophoresis.)

Results are given in words; binding and its absence hold for the method and conditions named. Binding seen in cells or lysates may run through a third protein. Some entries that bind do so weakly or less than the wild type.

Regarding “Sur8 in lysates of HEK293 cells transfected with the indicated plasmids (Figure 5C-E) (from UniProt Q9UQ13 1-582)”, the binding result is given as “binds”.
